{"sequences": {"note": "Chains of the proteins cited; added tags and fusions are not shown.", "UniProt O14672, whole entry": "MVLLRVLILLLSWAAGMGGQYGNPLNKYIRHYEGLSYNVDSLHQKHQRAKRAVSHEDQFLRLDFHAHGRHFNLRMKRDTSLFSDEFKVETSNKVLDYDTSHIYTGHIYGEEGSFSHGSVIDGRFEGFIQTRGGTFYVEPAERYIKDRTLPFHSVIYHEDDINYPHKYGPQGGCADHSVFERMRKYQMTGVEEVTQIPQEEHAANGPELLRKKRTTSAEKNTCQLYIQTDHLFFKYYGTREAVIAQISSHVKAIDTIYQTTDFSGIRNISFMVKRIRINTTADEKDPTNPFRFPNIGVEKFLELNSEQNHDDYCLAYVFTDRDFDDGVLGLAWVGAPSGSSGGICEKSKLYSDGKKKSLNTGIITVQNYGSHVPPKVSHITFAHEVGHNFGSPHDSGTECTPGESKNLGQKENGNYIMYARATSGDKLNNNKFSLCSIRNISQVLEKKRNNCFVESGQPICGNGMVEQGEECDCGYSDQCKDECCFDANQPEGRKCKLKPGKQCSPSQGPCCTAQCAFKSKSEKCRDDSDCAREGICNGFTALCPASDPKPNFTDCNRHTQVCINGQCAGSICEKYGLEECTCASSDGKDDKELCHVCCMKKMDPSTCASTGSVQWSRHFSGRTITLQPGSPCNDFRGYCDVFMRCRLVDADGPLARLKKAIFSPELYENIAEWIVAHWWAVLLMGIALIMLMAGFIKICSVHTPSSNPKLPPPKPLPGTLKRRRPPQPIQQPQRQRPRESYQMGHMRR"}, "source": "patent US7498358B2", "about": "“Human ADAM-10 inhibitors” (Exelixis, Inc., priority 2001, dated 2009)", "target": "hADAM-10 (UniProt O14672)", "assay": "ADAM-10 enzyme assay: cleavage of fluorogenic 10-residue peptide (DABCYL/EDANS)", "details": "read-out: ADAM-10 IC50, Table 4, in vitro", "procedure": "mADAM-10 or hADAM-10 activity was measured as the ability to cleave a 10-residue peptide (DABCYL-Leu-Leu-Ala-Gln-Lys-*-Leu-Arg-Ser-Ser-Arg-EDANS). […] Enzyme was diluted to a final active concentration of 5 nM in Buffer A (50 mM HEPES 8.0, 100 mM NaCl, 1 mM CaCl2 and 0.01% NP-40). Serial dilutions for compounds were performed ranging from 100 uM to 0.5 nM using a Beckman Biomek 2000 in polypropylene plates (Greiner). 20 μl of enzyme solution was added to 10 μl of compound in buffer A, and allowed to incubate for 15 min in 384 well black, Greiner, microtiter plates (#781076). 20 μl of substrate (12.5 uM in Buffer A) was then added, resulting in final reaction conditions of 2 nM ADAM-10, 5 μM substrate, and compound concentrations ranging from 20 uM to 0.1 nM. The reaction was incubated for 2 hr at RT, and fluorescence was measured at Ex355, Em460 on a Wallac Victor 2 fluorescence reader. For final analysis of potent inhibitors, a similar reaction was set up with a final active ADAM-10 concentration of 0.1 nM. This reaction was incubated for 16 hr at RT and fluorescence was read using identical conditions.\nInhibition is indicated as IC50 with the following key: A=IC50 less than 50 nM, B=IC50 greater than 50 nM, but less than 1000 nM, C=IC50 greater than […], but less than 20,000 nM, and D=IC50 greater than 20,000 nM.", "note": "The match of structure and compound is tentative."}
{"smiles": "NC(=N[N+](=O)[O-])NCCCC(NS(=O)(=O)c1ccc(Oc2ccccc2)cc1)C(=O)NO", "note": "(stereo not shown)", "values": [{"measurement": "IC50", "result": "< 50", "unit": "nM"}]}
